About 1,000 (0.3%) of roughly 330,000 compounds were called active. The shares of active, inactive and inconclusive entries below differ from those in the screen. Calls come from the whole dose curve; as a rule, active = well fitted inhibition curve with a large enough effect; inconclusive = small, poorly fitted or top-dose-only effect; inactive = no such curve, though single readings can be large or run the other way; tested in mouse RAW 264.7 cells. Potencies of inconclusive entries are doubtful fits and often do not repeat.
Experiment: qHTS for Inhibitors of Cell Surface uPA Generation; note: nearly all actives have a fitted effect of over 55% in size
Conditions: cell surface uPA generation assay; series mostly up to 38.3 µM
Outline: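 RAW 264.7, 4000 cells/well, o/n 37 C; cpd 1:5 dilution, up to 38.3 uM final; 24 h 37 C/5% CO2 with reagent; ATP-Lite lum. High ATP = LF entry blocked.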
Potency is the fitted concentration of half-maximal effect.

Structure (SMILES) | Potency
N#C/C(=C\c1cccs1)C(=O)c1ccccc1Cl | inconclusive: 14.1 µM [inhibitor, single point]
O=C(c1cc(-c2cccc(O)c2)on1)N1CCOCC1 | inconclusive: 7.94 µM [inhibitor, partial curve, poor fit]
CC(=O)Oc1ccccc1/C=C/c1nc2ccccc2c(=O)o1 | inconclusive: 2.51 µM [inhibitor, partial curve, poor fit]
O=c1oc2ccccc2c(NCc2ccc(Cl)cc2)c1[N+](=O)[O-] | inconclusive: 10 µM [inhibitor, partial curve]
O=[N+]([O-])c1ccc(Cl)c(S(=O)(=O)Nc2ccc(-c3ccc(N4CCCC4)nn3)cc2)c1 | inactive
COc1ccc(-c2cnn(-c3ccccc3)c2N)cc1OC | inactive
Oc1cccc(/C=N/Nc2nn3cnnc3c3ccccc23)c1 | inconclusive: 4.47 µM [inhibitor, partial curve, poor fit]
Cc1ccc(C(=O)NCC(=O)NCCCc2ccccc2)s1 | inactive
O=C(NCCN1CCCCC1)c1cc(Cl)ccc1Cl | inactive
Cc1csc(SCC(=O)Nc2ccccc2[N+](=O)[O-])n1 | inactive
COc1ccc2nc(NNC(=O)c3cc(=O)c4ccccc4o3)sc2c1 | inconclusive: 28.2 µM [inhibitor, single point]
O=C(NCc1ncc(C(F)(F)F)cc1Cl)Nc1ccccc1 | inactive
O=C(NCCCN1CCOCC1)c1cc2c([nH]c3ccccc32)c(-c2cccc(Br)c2)n1 | inconclusive: 8.91 µM [inhibitor, single point]
Cc1ccc(OCC(=O)NNC(=O)c2ccc(NC(=O)C3CC3)cc2)c(C)c1 | inactive
O=C(N[C@@H]1c2ccccc2CC[C@@H]1OCc1ccccc1)c1ccc(C(F)(F)F)cc1 | inactive
O=C(Nc1ccccc1)Nc1ccc(-n2ccc(C(F)(F)F)n2)cc1 | inconclusive: 11.2 µM [inhibitor, partial curve]
C=CCCCN(Cc1ccccc1)S(=O)(=O)c1ccccc1Br | inconclusive: 1 µM [inhibitor, full curve]
O=[N+]([O-])c1cccc(S(=O)(=O)Nc2nc3ccccc3nc2Nc2cccc(S(=O)(=O)N3CCCCC3)c2)c1 | inconclusive: 1.78 µM [inhibitor, partial curve, poor fit]
COC(=O)c1scc(C)c1NC(=O)c1cccc(C#N)c1 | inconclusive: 0.0022 µM [inhibitor, full curve, poor fit]
Cc1cc(O)ccc1N=Cc1c(C(F)(F)F)[nH][nH]c1=O | inconclusive: 10 µM [inhibitor, partial curve, poor fit]
Cc1cccc(NNC(=O)C(=O)NNc2cccc(C)c2)c1 | inconclusive: 5.01 µM [inhibitor, partial curve, poor fit]
CC1CCN(c2ccc3c(c2)S(=O)(=O)c2cccc(C(=O)NC[C@@H]4CCCO4)c2C3=O)CC1 | inconclusive: 10 µM [inhibitor, partial curve, poor fit]
CCNC(=S)N/N=C(\C)c1ccc2c(c1)OCCO2 | inactive
CN(C)P(=O)(Nc1cccc2ccccc12)Nc1cccc2ccccc12 | inactive

Structure (SMILES) | Potency
C=CCn1c(SCC(=O)NCC2CCCO2)nc2sc(CC)cc2c1=O (stereo not given) | inconclusive: 11.2 µM [inhibitor, single point]
CC(C)CCOC(=O)C[N+](C)(C)CCOC1CC2CCC1(C)C2(C)C (stereo not given) | active: 10 µM
O=C(/C=C/c1ccc(Cl)cc1Cl)Nc1ccc(CN2CCOCC2)cc1 | inconclusive: 10 µM [inhibitor, partial curve]
CCCn1c(CCC(=O)O)nc2cc(S(=O)(=O)N(CC)CC)ccc21 | inconclusive: 8.91 µM [inhibitor, partial curve, poor fit]
Cc1ccc(-n2nc3c(N4CCC(C(=O)NCc5ccccc5C)CC4)nnc(C)c3c2C)cc1 | inconclusive: 5.01 µM [inhibitor, partial curve, poor fit]
CCC1CCC(C(=O)NC(C(=O)NCCc2ccc(S(N)(=O)=O)cc2)C(C)C)CC1 (stereo not given) | inactive
CC1CCC/C=C/C(=O)c2c(O)cc(O)cc2CC(=O)O1 (stereo not given) | inconclusive: 0.891 µM [inhibitor, full curve, poor fit]
C/C(=N\NC(=O)c1cccc(N/N=C(\C)c2ccco2)c1)c1ccco1 | inconclusive: 12.6 µM [inhibitor, single point]
COC(=O)c1ccc(COc2ccccc2/C=N/NS(=O)(=O)c2ccc(C)cc2)cc1 | inactive
CC(=O)NC1(C(Cl)(Cl)Cl)Oc2ccccc2O1 | inactive
O=C(CCl)N(Cc1ccccc1)c1ccccc1 | inconclusive: 5.62 µM [inhibitor, partial curve, poor fit]
CC(C)(C)c1ccc(C(=O)N2CCN(C(=O)C3CCCCC3)CC2)cc1 | inactive
Nc1nc(COc2ccc3ccccc3c2)cs1 | inactive
O=C(Nc1ccccn1)C1CCN(S(=O)(=O)c2ccc3ccccc3c2)CC1 | inactive
O=C(Nc1ccccn1)Nc1cccs1 | inactive
CCOc1ccc(NC(=O)C2CCN(S(C)(=O)=O)CC2)cc1 | inconclusive: 3.55 µM [inhibitor, partial curve, poor fit]
Cc1ccc2nc(-c3ccc(NC(=O)C(C)Sc4nncs4)cc3)sc2c1 (stereo not given) | inconclusive: 10 µM [inhibitor, single point]
COc1ccc(Cl)cc1C(=O)Nc1ccc2c(c1)OCCO2 | inconclusive: 12.6 µM [inhibitor, single point]
Cc1ccc(F)c([C@H]2C3C=CCC(c4ccccc4)C3C(=O)N2Cc2ccccc2)c1 (stereo not given in full) | inconclusive: 14.1 µM [inhibitor, single point]
CC(C)c1nnc(NC(=O)c2cccs2)s1 | inconclusive: 11.2 µM [inhibitor, partial curve, poor fit]
S=c1sc2c(Cl)ncnc2n1-c1ccccc1 | inconclusive: 28.2 µM [inhibitor, single point]
CC(C)(C)CC(C)(C)c1ccc(O)c(Cc2ccc(Cl)cc2Cl)c1 | inconclusive: 14.1 µM [inhibitor, single point]
O=C(Cc1ccc(Cl)cc1)NCCS(=O)(=O)N1CCN(c2ccccc2F)CC1 | inconclusive: 7.94 µM [inhibitor, single point]
C/C=C/COC(=O)c1[nH]c2c(c1C)C(=O)CC(c1ccco1)C2 (stereo not given) | inconclusive: 0.316 µM [inhibitor, full curve, poor fit]

As a short view, part of the list above.
Structure (SMILES) | Potency
COc1ccc(Cl)cc1C(=O)Nc1ccc2c(c1)OCCO2 | inconclusive: 12.6 µM [inhibitor, single point]
Cc1ccc(F)c([C@H]2C3C=CCC(c4ccccc4)C3C(=O)N2Cc2ccccc2)c1 (stereo not given in full) | inconclusive: 14.1 µM [inhibitor, single point]
CC(C)c1nnc(NC(=O)c2cccs2)s1 | inconclusive: 11.2 µM [inhibitor, partial curve, poor fit]
S=c1sc2c(Cl)ncnc2n1-c1ccccc1 | inconclusive: 28.2 µM [inhibitor, single point]

The list goes on:

Structure (SMILES) | Potency
CCN(c1ccccc1)S(=O)(=O)c1cc(C(=O)NCC(c2ccc(OC)cc2)N(C)C)ccc1C (stereo not given) | inconclusive: 2 µM [inhibitor, partial curve, poor fit]
O=C(COc1ccccc1-c1ccccc1)N/N=C/c1ccncc1 | inactive
COc1ccc(NC(=O)N(Cc2cc3cc(C)ccc3[nH]c2=O)CC2CCCO2)cc1 (stereo not given) | inconclusive: 12.6 µM [inhibitor, single point]
CCN(CC)c1ccc(/C=N/NC(=S)NC)c(O)c1 | inconclusive: 12.6 µM [inhibitor, single point]
CCOc1ccc2[nH]cc(C(=O)NCc3ccccc3)c(=O)c2c1 | inconclusive: 11.2 µM [inhibitor, partial curve]
Cc1cc(C)n(-c2nc3ccccc3c(=O)n2OCc2ccc(Cl)cc2)n1 | inactive
COc1ccc(C2=CC3=C(Br)C(=O)C(C)(OC(=O)c4ccco4)C(=O)C3=CO2)cc1 (stereo not given) | inactive
O=C1CCSc2ccc(Cl)cc2N1Cc1ccccc1 | inactive
CC(C(=O)Nc1ccc2c(c1)OCO2)n1cnc2c1c(=O)n(C)c(=O)n2C (stereo not given) | inconclusive: 12.6 µM [inhibitor, single point]
Cc1nn(-c2ccccc2)c(/N=C/c2ccc(O)cc2)c1-c1ccccc1 | inconclusive: 11.2 µM [inhibitor, partial curve, poor fit]
O=C(/C=C/c1ccc(Br)cc1)N1CCN(c2cccc(C(F)(F)F)c2)CC1 | inconclusive: 11.2 µM [inhibitor, partial curve, poor fit]
O=C(/C=C/c1ccc(Cl)cc1Cl)c1nc2ccccc2[nH]1 | inactive
CC(C)(C)c1ccc(Oc2ccc(N)cc2)cc1 | inconclusive: 10 µM [inhibitor, partial curve, poor fit]
O=[N+]([O-])c1ccc2nc(-c3ccc(Cl)cc3)[nH]c2c1 | inconclusive: 8.91 µM [inhibitor, single point]
O=C(CC1Sc2ncnn2C1=O)Nc1ccc(Br)cc1 (stereo not given) | inconclusive: 10 µM [inhibitor, partial curve]
CCOC(=O)C1CCN(C(=O)c2cc(S(=O)(=O)N3CCOCC3)ccc2C)CC1 | inconclusive: 0.01 µM [inhibitor, full curve, poor fit]
CN(C)S(=O)(=O)Oc1ccc(C(=O)Nc2cccc(C(F)(F)F)c2)cc1 | inconclusive: 31.6 µM [inhibitor, single point]
CCCCC1=CC2=C(c3ccco3)C(=O)C(C)(OC(=O)c3ccc(OC)cc3)C(=O)C2=CN1CC1CC1 (stereo not given) | inactive
O=C(OCC#CCSc1nnc(-c2cccc3ccccc23)o1)c1ccc2ccccc2c1 | inconclusive: 5.62 µM [inhibitor, partial curve, poor fit]
CC1Sc2ccc(S(=O)(=O)N3CCN(c4ccccc4)CC3)cc2NC1=O (stereo not given) | inconclusive: 22.4 µM [inhibitor, single point]
C=CCc1c(C)nc2cc(-c3ccc(C)cc3)[nH]n2c1=O | active: 11.2 µM
Cc1ccccc1Cn1c(O)c(N=NC(=S)Nc2ccccc2F)c2ccccc21 | inconclusive: 3.16 µM [inhibitor, full curve]
